Data published in article PMC3258255.
No constants are given. Whether binding was seen depends on the method and setting. Binding seen in cells or lysates may run through a third protein. Some results given as binding are weak or reduced against the parent protein; the word gives no strength. For some assays here: Where a sequence is shown, tags or fusion partners need not be part of it.

Sequences of proteins named here, by UniProt entry; tags and fusion partners are left off.
UniProt P28482: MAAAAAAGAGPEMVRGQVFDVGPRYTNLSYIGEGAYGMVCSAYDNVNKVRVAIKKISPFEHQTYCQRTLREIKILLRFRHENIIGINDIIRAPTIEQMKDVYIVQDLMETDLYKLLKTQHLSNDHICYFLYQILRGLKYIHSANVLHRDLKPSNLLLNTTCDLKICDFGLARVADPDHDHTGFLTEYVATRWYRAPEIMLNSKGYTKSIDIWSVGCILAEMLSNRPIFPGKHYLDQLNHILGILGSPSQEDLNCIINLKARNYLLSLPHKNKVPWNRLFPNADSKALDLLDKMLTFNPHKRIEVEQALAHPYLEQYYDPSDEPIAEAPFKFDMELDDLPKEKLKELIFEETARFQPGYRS
UniProt P12270: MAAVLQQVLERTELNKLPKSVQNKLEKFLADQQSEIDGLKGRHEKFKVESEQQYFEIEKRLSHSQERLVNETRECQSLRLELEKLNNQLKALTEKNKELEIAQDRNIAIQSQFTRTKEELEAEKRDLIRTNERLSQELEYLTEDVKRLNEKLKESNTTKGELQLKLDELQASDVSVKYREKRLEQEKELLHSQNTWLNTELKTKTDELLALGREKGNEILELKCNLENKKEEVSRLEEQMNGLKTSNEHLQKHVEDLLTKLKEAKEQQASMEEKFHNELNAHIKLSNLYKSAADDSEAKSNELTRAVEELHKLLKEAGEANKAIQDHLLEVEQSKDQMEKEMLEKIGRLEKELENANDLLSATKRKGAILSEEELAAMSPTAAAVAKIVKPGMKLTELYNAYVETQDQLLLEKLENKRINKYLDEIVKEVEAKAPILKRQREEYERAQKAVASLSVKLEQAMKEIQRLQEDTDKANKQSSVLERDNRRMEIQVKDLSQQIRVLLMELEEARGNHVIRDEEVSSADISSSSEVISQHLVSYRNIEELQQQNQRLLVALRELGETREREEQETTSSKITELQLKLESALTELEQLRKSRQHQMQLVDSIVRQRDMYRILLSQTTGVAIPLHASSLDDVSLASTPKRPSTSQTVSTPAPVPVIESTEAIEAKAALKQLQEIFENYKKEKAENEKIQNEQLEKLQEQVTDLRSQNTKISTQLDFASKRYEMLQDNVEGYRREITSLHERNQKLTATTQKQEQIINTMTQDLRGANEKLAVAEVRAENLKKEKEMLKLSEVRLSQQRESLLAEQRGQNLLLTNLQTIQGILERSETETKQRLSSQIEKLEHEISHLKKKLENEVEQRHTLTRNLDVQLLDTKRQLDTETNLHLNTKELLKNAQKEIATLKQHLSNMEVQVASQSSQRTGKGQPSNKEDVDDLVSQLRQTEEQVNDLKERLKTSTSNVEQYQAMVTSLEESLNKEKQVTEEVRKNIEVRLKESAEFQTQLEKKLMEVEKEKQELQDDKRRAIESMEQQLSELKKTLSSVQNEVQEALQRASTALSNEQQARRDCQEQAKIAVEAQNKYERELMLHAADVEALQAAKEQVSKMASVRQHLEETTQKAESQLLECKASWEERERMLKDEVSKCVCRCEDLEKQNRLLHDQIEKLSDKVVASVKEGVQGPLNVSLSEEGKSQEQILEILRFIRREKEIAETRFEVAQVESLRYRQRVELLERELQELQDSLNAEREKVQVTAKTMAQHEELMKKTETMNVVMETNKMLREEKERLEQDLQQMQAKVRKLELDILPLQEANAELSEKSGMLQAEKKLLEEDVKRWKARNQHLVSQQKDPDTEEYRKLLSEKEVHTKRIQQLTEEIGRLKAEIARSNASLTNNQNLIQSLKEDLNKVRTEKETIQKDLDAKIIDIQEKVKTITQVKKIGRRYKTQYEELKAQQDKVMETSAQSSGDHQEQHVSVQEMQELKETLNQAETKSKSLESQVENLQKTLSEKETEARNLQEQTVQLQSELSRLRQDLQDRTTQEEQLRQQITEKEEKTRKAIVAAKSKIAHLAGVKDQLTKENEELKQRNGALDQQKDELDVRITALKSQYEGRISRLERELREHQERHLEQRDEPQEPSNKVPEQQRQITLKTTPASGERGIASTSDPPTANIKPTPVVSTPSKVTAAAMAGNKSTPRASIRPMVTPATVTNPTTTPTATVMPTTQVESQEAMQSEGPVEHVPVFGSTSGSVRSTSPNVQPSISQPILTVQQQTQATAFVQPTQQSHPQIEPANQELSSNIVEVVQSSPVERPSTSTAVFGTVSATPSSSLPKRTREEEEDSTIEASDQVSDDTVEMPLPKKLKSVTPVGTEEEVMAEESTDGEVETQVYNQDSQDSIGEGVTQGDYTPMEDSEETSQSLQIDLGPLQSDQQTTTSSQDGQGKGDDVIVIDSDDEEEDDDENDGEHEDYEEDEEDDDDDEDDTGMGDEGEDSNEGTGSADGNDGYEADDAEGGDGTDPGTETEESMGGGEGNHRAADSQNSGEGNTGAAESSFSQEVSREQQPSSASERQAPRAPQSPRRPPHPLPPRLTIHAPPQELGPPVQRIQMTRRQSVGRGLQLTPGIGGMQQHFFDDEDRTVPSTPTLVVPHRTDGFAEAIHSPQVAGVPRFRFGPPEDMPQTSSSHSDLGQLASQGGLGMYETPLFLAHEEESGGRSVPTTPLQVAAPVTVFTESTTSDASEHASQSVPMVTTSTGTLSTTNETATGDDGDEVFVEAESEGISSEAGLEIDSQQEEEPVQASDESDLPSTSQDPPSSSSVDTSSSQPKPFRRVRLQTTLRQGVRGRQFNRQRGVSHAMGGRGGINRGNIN

Assays:
[1] = biological target: T1, HA-Nxt/p15 (UniProt Q9UKK6); test: co-IP; cells transfected with HA-tagged constructs; 24 hours post transfection lysed, lysates immunoprecipitated with HA-antibodies; immunoblots probed with anti-HA and anti-Tpr antibodies
T1 sequence: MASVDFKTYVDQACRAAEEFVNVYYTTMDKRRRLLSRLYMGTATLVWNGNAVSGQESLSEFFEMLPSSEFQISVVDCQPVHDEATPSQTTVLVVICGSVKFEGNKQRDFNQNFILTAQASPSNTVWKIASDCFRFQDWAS

[2] = biological target: HA-ERK2 (UniProt P28482); test: as above

binding [1]: no binding
binding [2]: binds
Substance: Nucleoporin Tpr (endogenous) (from UniProt P12270 1-2363)
